# Assay results published in the supplement of paper PMC6411743.
# Chains of the proteins cited; added tags and fusions are not shown. Lines headed by an entry give the natural chain unless they say otherwise; changes in a name come on top.
# UniProt Q92560: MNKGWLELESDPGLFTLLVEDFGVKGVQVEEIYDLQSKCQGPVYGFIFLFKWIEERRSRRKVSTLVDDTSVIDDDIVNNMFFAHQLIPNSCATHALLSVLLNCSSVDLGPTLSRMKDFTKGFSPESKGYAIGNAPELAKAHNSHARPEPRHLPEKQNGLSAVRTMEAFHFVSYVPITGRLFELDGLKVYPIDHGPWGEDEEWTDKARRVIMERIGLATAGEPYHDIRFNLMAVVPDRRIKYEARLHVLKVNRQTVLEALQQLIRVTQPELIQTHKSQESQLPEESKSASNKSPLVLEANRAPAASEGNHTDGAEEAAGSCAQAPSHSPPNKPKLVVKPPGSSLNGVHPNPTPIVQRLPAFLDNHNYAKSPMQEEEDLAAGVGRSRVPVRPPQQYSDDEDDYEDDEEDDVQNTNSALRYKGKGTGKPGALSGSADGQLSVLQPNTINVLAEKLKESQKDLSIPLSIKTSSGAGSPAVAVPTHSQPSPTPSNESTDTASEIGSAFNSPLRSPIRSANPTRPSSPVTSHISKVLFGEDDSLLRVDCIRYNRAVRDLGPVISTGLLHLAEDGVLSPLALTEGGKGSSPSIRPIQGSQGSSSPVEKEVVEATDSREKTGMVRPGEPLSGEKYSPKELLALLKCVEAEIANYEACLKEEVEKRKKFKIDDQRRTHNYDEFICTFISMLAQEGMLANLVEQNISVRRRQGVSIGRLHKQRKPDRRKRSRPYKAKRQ
# UniProt P11117: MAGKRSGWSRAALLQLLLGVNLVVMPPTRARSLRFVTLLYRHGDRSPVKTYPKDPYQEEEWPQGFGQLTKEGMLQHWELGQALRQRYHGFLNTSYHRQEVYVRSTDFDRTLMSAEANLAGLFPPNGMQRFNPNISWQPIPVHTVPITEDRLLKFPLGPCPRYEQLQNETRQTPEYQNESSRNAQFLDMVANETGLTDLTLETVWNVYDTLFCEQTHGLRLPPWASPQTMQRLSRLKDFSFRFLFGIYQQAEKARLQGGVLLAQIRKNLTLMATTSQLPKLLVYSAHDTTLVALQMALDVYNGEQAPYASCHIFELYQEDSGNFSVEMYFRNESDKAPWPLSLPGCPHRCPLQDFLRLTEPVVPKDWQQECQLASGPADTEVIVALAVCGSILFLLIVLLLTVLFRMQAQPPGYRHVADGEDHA
# UniProt Q96KG9: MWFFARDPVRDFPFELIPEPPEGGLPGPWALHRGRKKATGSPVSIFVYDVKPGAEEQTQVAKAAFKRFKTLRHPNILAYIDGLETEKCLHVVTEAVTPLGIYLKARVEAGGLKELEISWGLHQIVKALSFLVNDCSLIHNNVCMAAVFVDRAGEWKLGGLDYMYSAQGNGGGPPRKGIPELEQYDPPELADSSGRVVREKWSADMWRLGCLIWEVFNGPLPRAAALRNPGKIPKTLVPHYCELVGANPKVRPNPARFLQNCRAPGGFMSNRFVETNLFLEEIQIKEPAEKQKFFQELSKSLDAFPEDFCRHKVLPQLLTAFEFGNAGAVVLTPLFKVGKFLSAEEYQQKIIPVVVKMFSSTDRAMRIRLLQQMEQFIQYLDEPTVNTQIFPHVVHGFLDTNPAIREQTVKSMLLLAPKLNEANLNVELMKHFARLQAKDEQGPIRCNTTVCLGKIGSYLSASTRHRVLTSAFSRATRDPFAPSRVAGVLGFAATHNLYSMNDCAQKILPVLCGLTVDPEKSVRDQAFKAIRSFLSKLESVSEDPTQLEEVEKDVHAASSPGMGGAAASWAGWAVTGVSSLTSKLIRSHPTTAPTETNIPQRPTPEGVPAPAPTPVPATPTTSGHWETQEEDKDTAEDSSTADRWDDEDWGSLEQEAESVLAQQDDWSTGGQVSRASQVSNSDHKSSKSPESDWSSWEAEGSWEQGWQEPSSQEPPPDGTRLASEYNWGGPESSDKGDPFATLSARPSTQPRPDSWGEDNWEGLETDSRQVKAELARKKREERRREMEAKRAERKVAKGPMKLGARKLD
# UniProt P52789: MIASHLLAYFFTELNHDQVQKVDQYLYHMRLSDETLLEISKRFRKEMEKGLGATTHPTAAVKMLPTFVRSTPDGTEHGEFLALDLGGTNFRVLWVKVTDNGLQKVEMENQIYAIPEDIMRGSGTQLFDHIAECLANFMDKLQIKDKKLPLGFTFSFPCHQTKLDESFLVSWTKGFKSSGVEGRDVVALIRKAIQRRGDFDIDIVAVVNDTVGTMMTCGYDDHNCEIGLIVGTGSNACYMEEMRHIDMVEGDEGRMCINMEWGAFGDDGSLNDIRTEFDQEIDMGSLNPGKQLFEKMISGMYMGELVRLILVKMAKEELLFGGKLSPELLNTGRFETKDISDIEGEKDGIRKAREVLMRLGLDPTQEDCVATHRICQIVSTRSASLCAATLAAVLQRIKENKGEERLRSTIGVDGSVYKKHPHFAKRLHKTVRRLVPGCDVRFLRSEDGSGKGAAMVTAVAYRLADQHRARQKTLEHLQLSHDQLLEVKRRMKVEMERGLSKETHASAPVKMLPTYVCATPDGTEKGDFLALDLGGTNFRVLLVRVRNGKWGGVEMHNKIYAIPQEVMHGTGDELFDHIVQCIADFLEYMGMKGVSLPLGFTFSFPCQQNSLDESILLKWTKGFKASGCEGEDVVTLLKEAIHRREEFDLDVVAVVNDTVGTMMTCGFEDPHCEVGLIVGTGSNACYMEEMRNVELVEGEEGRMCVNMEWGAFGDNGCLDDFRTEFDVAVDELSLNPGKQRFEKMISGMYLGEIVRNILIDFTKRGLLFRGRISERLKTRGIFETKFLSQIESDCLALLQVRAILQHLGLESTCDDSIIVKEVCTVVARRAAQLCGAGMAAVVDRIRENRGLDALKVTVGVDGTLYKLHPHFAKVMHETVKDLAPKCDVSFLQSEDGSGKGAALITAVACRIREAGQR
# UniProt Q9H6E5: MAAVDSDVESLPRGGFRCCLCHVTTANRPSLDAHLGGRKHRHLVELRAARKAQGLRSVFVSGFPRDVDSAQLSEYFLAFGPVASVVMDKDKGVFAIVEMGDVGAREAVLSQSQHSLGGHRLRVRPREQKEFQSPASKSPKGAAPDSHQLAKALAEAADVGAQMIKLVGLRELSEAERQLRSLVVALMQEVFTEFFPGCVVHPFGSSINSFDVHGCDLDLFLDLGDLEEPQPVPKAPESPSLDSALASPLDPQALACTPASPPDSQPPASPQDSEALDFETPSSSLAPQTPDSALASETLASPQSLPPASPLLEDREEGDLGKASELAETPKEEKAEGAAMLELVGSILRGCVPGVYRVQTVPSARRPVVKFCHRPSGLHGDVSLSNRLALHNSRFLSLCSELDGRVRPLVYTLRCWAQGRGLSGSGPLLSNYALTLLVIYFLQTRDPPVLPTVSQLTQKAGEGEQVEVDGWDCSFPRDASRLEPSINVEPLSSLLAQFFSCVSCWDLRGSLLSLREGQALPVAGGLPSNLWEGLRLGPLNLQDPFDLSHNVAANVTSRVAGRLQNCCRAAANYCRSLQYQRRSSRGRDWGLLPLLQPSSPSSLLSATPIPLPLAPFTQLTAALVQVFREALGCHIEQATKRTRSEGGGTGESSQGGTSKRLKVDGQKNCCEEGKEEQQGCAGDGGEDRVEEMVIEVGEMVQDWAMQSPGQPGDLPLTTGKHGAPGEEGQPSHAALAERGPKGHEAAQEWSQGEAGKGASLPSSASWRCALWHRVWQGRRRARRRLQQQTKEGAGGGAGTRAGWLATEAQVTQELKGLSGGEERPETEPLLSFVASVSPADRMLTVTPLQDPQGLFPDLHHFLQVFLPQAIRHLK
# UniProt Q15434: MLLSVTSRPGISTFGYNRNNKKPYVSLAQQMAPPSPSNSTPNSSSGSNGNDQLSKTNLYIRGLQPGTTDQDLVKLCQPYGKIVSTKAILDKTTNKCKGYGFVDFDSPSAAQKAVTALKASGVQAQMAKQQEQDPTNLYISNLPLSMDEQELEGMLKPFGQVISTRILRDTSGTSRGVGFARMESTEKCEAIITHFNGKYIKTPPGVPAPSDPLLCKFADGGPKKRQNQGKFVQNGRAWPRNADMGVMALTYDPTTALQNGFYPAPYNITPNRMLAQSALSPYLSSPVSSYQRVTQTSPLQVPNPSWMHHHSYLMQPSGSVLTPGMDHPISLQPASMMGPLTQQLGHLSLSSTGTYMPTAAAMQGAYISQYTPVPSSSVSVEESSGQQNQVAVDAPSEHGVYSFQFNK
# UniProt Q06609, whole entry: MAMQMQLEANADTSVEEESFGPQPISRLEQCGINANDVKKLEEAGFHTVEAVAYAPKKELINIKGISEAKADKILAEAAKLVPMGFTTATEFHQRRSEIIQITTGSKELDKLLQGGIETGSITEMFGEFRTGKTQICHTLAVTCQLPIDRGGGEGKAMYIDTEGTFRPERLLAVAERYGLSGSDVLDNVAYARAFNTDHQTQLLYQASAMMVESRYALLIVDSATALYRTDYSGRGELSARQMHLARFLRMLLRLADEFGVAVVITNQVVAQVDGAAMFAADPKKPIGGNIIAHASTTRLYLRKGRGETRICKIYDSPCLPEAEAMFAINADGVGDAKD
# UniProt O14683: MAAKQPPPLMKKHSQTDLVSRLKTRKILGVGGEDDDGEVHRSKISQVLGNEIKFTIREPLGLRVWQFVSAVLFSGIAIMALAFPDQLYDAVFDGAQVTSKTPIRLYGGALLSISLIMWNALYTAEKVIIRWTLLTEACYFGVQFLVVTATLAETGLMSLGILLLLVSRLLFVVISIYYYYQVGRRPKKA
# UniProt O00329: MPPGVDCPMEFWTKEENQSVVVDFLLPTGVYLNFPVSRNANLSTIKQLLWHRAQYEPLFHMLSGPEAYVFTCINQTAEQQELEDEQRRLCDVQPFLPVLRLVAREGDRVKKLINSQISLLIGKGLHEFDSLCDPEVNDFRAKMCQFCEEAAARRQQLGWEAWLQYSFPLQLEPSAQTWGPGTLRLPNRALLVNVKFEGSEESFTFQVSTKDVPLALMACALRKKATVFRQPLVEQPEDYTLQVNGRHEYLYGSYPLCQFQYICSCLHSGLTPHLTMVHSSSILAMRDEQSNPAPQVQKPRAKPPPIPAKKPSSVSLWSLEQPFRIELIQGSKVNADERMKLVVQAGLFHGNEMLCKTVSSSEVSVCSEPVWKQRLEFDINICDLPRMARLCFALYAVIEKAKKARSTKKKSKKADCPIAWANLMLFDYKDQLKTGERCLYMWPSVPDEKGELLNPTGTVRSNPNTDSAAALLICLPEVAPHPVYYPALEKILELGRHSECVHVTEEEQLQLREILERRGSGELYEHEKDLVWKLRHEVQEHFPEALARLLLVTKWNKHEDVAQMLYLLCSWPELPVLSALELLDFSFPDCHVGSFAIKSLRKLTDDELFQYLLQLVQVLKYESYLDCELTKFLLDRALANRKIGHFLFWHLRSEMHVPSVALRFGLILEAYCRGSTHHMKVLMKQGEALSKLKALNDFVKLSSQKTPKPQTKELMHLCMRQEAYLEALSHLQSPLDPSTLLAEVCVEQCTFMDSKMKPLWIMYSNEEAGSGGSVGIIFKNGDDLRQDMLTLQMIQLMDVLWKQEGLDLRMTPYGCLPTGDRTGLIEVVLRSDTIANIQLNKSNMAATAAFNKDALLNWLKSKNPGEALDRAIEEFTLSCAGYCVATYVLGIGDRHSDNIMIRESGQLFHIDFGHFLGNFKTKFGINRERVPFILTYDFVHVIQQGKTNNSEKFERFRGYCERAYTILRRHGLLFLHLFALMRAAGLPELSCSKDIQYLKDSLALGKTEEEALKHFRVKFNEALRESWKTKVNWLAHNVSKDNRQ
# UniProt P15498: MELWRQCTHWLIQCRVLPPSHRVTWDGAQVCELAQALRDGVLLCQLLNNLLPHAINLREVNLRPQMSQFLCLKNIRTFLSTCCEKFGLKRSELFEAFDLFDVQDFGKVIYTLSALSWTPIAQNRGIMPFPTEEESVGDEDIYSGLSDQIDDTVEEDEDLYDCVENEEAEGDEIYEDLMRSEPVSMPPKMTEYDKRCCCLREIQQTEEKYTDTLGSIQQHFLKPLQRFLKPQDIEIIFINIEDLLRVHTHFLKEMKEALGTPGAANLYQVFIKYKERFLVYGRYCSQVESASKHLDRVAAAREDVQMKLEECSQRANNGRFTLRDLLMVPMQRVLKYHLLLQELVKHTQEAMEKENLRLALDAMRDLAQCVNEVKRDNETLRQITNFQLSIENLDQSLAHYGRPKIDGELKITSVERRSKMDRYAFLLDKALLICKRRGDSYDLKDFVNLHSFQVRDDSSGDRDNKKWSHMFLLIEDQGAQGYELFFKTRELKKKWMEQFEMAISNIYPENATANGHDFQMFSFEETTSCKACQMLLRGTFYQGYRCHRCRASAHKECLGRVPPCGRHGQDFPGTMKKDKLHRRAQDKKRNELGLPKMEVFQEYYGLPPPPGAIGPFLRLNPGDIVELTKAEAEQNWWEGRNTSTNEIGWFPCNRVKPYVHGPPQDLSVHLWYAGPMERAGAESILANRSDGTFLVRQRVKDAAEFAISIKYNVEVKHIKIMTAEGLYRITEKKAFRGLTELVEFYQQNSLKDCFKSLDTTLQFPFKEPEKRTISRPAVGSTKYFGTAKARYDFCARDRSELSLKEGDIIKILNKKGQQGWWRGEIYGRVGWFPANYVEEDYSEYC
# ± gives the standard deviation of the averaged measurements. This is one part of the list.
# Compound: Nc1nc2c(ncn2[C@@H]2O[C@H](COP(=O)(O)OP(=O)(O)OP(=O)(O)O)[C@@H](O)[C@H]2O)c(=O)[nH]1 [guanosine triphosphate]
# Assay: NP40-soluble protein abundance relative to vehicle (solubility fold change) (ratio); higher = more soluble protein in presence of GTP
# Summary of the method: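 Values are fold changes against the detergent-processed vehicle, based on vsn-normalised intensities. Jurkat crude lysate was treated at eight concentrations from 0.1 to 10 mM (10 min at room temperature, then 3 min at 37 °C), solubilised with 0.8% NP40 and benzonase, ultracentrifuged and analysed by TMT-labelled LC-MS/MS over three independent experiments.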
Target,NP40-soluble protein abundance (concentration: 0.1mM),NP40-soluble protein abundance (concentration: 0.5mM),NP40-soluble protein abundance (concentration: 1mM),NP40-soluble protein abundance (concentration: 2mM),NP40-soluble protein abundance (concentration: 4mM),NP40-soluble protein abundance (concentration: 6mM),NP40-soluble protein abundance (concentration: 8mM),NP40-soluble protein abundance (concentration: 10mM)
F5H5I6 and related entries (UniProt Q12849),0.9639 ± 0.005,0.929 ± 0.017,0.825 ± 0.069,0.787 ± 0.094,0.724 ± 0.12,0.742 ± 0.14,0.725 ± 0.11,0.727 ± 0.12
F8W6N3 and related entries (UniProt Q92560),0.959 ± 0.067,0.997 ± 0.14,1.03 ± 0.093,1.05 ± 0.14,1.06 ± 0.11,1.09 ± 0.085,1.09 ± 0.13,1.08 ± 0.17
E9PLK3 and related entries (UniProt P55786),1.01 ± 0.048,1.03 ± 0.043,0.913 ± 0.034,0.92 ± 0.021,0.9 ± 0.02,0.891 ± 0.0091,0.852 ± 0.074,0.834 ± 0.075
E9PMI6 and related entries (UniProt P54105),0.987 ± 0.032,0.914 ± 0.04,1.03 ± 0.037,1.01 ± 0.036,1.03 ± 0.021,1.01 ± 0.052,0.991 ± 0.038,1.03 ± 0.017
E9PQY3 and related entries (UniProt P11117),0.97 ± 0.12,0.861 ± 0.028,0.996 ± 0.052,1 ± 0.11,0.983 ± 0.073,0.968 ± 0.054,0.961 ± 0.026,0.977 ± 0.015
G3V5Z7 and related entries (UniProt P60900),1.03 ± 0.082,1.09 ± 0.15,1.03 ± 0.13,1.07 ± 0.19,1.08 ± 0.17,1.1 ± 0.21,1.06 ± 0.16,1.02 ± 0.17
E9PPN3 and related entries (UniProt Q96KG9),1.035 ± 0.0018,1.04 ± 0.029,0.964 ± 0.017,0.987 ± 0.041,0.988 ± 0.028,1 ± 0.028,0.966 ± 0.036,0.928 ± 0.0099
E9PB90 and related entries (UniProt P52789),1.05 ± 0.043,1.03 ± 0.061,0.978 ± 0.035,0.949 ± 0.07,0.983 ± 0.064,0.932 ± 0.036,0.938 ± 0.014,0.876 ± 0.087
F8WF69 and related entries (UniProt P09496),1.03 ± 0.039,1.09 ± 0.086,1.06 ± 0.047,1.03 ± 0.12,0.99 ± 0.13,1.03 ± 0.1,1.12 ± 0.086,1.1 ± 0.067
F5H0R1 and related entries (UniProt Q9H6E5),1 ± 0.044,0.96 ± 0.072,0.981 ± 0.033,0.993 ± 0.053,0.962 ± 0.059,0.964 ± 0.048,0.982 ± 0.062,1.01 ± 0.036
F5GWD3 and related entries (UniProt Q13889),1.25 ± 0.046,1.11 ± 0.037,0.995 ± 0.038,1.13 ± 0.091,1.08 ± 0.071,1.13 ± 0.098,1.1 ± 0.027,1.11 ± 0.027
F8W1T6 and related entries (UniProt Q15434),0.955 ± 0.056,0.922 ± 0.069,0.99 ± 0.042,0.933 ± 0.089,0.961 ± 0.11,0.911 ± 0.15,0.949 ± 0.12,0.935 ± 0.098
E9PK67 and related entries (UniProt Q53GL7),1.05 ± 0.097,1.06 ± 0.12,0.954 ± 0.041,1.01 ± 0.15,0.982 ± 0.12,0.935 ± 0.11,0.949 ± 0.019,0.949 ± 0.08
G3V1P5 and related entries (UniProt Q96RN5),0.81487 ± 9.8e-05,0.933 ± 0.044,0.818 ± 0.057,0.958 ± 0.041,0.956 ± 0.07,0.948 ± 0.034,0.877 ± 0.046,1.08 ± 0.079
E7EPB3 and related entries (UniProt P50914),0.895 ± 0.094,0.955 ± 0.14,1.02 ± 0.22,0.961 ± 0.25,0.859 ± 0.27,0.83 ± 0.27,0.62 ± 0.18,0.898 ± 0.32
G3V394 and related entries (UniProt Q9Y4I1),1.28 ± 0.16,2.15 ± 0.36,2.39 ± 0.25,2.51 ± 0.3,2.65 ± 0.31,2.59 ± 0.39,2.5 ± 0.4,2.51 ± 0.36
G3V1R7 and related entries (UniProt O14975),1.04 ± 0.073,1.06 ± 0.046,1.03 ± 0.12,1.03 ± 0.1,1.06 ± 0.043,0.991 ± 0.096,1.01 ± 0.058,1.03 ± 0.14
E9PI54 and related entries (UniProt Q06609),1.02 ± 0.022,1.06 ± 0.028,0.9765 ± 0.0041,0.987 ± 0.04,0.946 ± 0.031,0.966 ± 0.027,0.97 ± 0.033,0.945 ± 0.0031
E9PGT6 and related entries (UniProt Q99627),0.959 ± 0.041,0.975 ± 0.055,1.01 ± 0.068,1.01 ± 0.059,1.02 ± 0.072,1.01 ± 0.022,0.967 ± 0.018,0.984 ± 0.037
G3XAG1 and related entries (UniProt Q96ME7),1.1 ± 0.013,1.17 ± 0.055,1.27 ± 0.04,1.445 ± 0.014,1.74 ± 0.059,1.88 ± 0.079,2.01 ± 0.13,2.17 ± 0.081
E9PIK4 and related entries (UniProt O14683),1.02 ± 0.082,0.995 ± 0.038,0.959 ± 0.044,0.934 ± 0.034,0.966 ± 0.059,0.891 ± 0.013,0.901 ± 0.031,0.876 ± 0.043
G3V2X9 and related entries (UniProt P12814),0.974 ± 0.026,1 ± 0.021,0.973 ± 0.048,0.933 ± 0.037,0.93 ± 0.053,0.947 ± 0.053,0.933 ± 0.047,0.932 ± 0.068
F8W9P4 and related entries (UniProt O00329),1.08 ± 0.08,1.06 ± 0.11,0.948 ± 0.05,1 ± 0.09,0.998 ± 0.077,0.937 ± 0.041,0.911 ± 0.051,0.902 ± 0.085
F5H5P4 and related entries (UniProt P15498),1.05 ± 0.043,1.05 ± 0.077,0.9215 ± 0.0078,0.935 ± 0.085,0.915 ± 0.041,0.896 ± 0.044,0.872 ± 0.053,0.84 ± 0.083
E9PRF4 and related entries (UniProt Q15047),0.977 ± 0.12,0.93 ± 0.12,0.904 ± 0.055,0.909 ± 0.039,0.873 ± 0.04,0.881 ± 0.035,0.904 ± 0.051,0.862 ± 0.017
F8W057 and related entries (UniProt Q9GZN1),1.07 ± 0.071,1.12 ± 0.041,1.08 ± 0.06,1.18 ± 0.081,1.13 ± 0.045,1.15 ± 0.02,1.19 ± 0.11,1.14 ± 0.045

# Complete entries, quoted from the list. Order of values: NP40-soluble protein abundance (concentration: 0.1mM)	NP40-soluble protein abundance (concentration: 0.5mM)	NP40-soluble protein abundance (concentration: 1mM)	NP40-soluble protein abundance (concentration: 2mM)	NP40-soluble protein abundance (concentration: 4mM)	NP40-soluble protein abundance (concentration: 6mM)	NP40-soluble protein abundance (concentration: 8mM)	NP40-soluble protein abundance (concentration: 10mM)
# F8W6N3 and related entries (UniProt Q92560) is entered as 0.959 ± 0.067	0.997 ± 0.14	1.03 ± 0.093	1.05 ± 0.14	1.06 ± 0.11	1.09 ± 0.085	1.09 ± 0.13	1.08 ± 0.17
# E9PIK4 and related entries (UniProt O14683) is entered as 1.02 ± 0.082	0.995 ± 0.038	0.959 ± 0.044	0.934 ± 0.034	0.966 ± 0.059	0.891 ± 0.013	0.901 ± 0.031	0.876 ± 0.043
